# No constants are given. Whether binding was seen depends on the method and setting. Some binding calls cover weakened binding; strength is not graded here.
# B1: WDR26 (WD-40 REPEAT 26) (protein, UniProt Q9FNN2 1-589)
# chain: MGVVEDTEPPLKRAKRLADEPNGFSANSSVRGSSVNSNSLGDLMARPLPSQGDDETIGSKGVIRKSEFVRIITRALYSLGYDKTGAMLEEESGISLHNSTIKLFLQQVKDGKWDQSVKTLHRIGFPDEKAVKAASFLLLEQKFLEFLKVEKIADALRTLRNEMAPLRINTKRVHELASSLISPSSFISHTTSTPGKESVNSRSKVLEELQTLLPASVIIPEKRLECLVENSLHIQRDSCVFHNTLDSDLSLYSDHQCGKHQIPSQTAQILESHTDEVWFLQFSHNGKYLASSSKDQTAIIWEISADGHISLKHTLVGHHKPVIAILWSPDDRQVLTCGAEEVIRRWDVDSGDCVHMYEKGGISPISCGWYPDGQGIIAGMTDRSICMWDLDGREKECWKGQRTQKVSDIAMTDDGKWLVSVCKDSVISLFDREATVERLIEEEDMITSFSLSNDNKYILVNLLNQEIRLWNIEGDPKIVSRYKGHKRSRFIIRSCFGGYKQAFIASGSEDSQVYIWHRSTGKLIVELPGHAGAVNCVSWSPTNLHMLASASDDGTIRIWGLDRINQQNQKKKLVQGSSSNGVIHRCNGN
# B2: ZML1 (ZIM-LIKE 1) (protein, UniProt Q8GXL7 1-297)
# chain: MDDLHGRNGRMHIGVAQNPMHVQYEDHGLHHIDNENSMMDDHADGGMDEGVETDIPSHPGNSADNRGEVVDRGIENGDQLTLSFQGQVYVFDRVSPEKVQAVLLLLGGREVPHTLPTTLGSPHQNNRVLGLSGTPQRLSVPQRLASLLRFREKRKGRNFDKTIRYTVRKEVALRMQRKKGQFTSAKSSNDDSGSTGSDWGSNQSWAVEGTETQKPEVLCRHCGTSEKSTPMMRRGPDGPRTLCNACGLMWANKGTLRDLSKVPPPQTPQHLSLNKNEDANLEADQMMEVTGDISNTQ
# B3: KNAT4 (protein, UniProt P48001 1-393)
# chain: MAFHNNHFNHFTDQQQHQPPPPPQQQQQQHFQESAPPNWLLRSDNNFLNLHTAASAAATSSDSPSSAAANQWLSRSSSFLQRGNTANNNNNETSGDVIEDVPGGEESMIGEKKEAERWQNARHKAEILSHPLYEQLLSAHVACLRIATPVDQLPRIDAQLAQSQNVVAKYSTLEAAQGLLAGDDKELDHFMTHYVLLLCSFKEQLQQHVRVHAMEAVMACWEIEQSLQSFTGVSPGEGTGATMSEDEDEQVESDAHLFDGSLDGLGFGPLVPTESERSLMERVRQELKHELKQGYKEKIVDIREEILRKRRAGKLPGDTTSVLKSWWQSHSKWPYPTEEDKARLVQETGLQLKQINNWFINQRKRNWHSNPSSSTVSKNKRRSNAGENSGRDR
# B4: KNAT5 (protein, UniProt P48002 1-383)
# chain: MSFNSSHLLPPQEDLPLRHFTDQSQQPPPQRHFSETPSLVTASFLNLPTTLTTADSDLAPPHRNGDNSVADTNPRWLSFHSEMQNTGEVRSEVIDGVNADGETILGVVGGEDWRSASYKAAILRHPMYEQLLAAHVACLRVATPVDQIPRIDAQLSQLHTVAAKYSTLGVVVDNKELDHFMSHYVVLLCSFKEQLQHHVCVHAMEAITACWEIEQSLQSLTGVSPSESNGKTMSDDEDDNQVESEVNMFDGSLDGSDCLMGFGPLVPTERERSLMERVKKELKHELKQGFKEKIVDIREEIMRKRRAGKLPGDTTSVLKEWWRTHSKWPYPTEEDKAKLVQETGLQLKQINNWFINQRKRNWNSNSSTSSTLTKNKRKRTGKS
# B5: high-mobility-group B4 (HMGB4) protein (protein, UniProt Q42344 1-138)
# chain: MKGGESKAEATSTDQRLKTRGRKAGKKTKKDPNQPKRPPSAFFVFLEDFRKEFNLANPNNKSVATVGKAAGARWKAMTDEDKAPYVAKAESRKTEYIKNVQQYNLKLASGTNREEDDSDKSKSEVDEAVSEEEAEDDD
# B6: p23-like chaperone AT4G02450 (protein, UniProt Q8L7U4 1-241)
# chain: MSRHPEVKWAETTEKIFLTVVLADTKDTKVNLDPEGVFDFSAKVGPENHVYELKLELADKVNVEESKINIGERSIFCIIEKAEPERWNKLLRVKKPPHYVKVDWDKWVDEDDEGSAGAADMDMAGMEGMGGMGGMGGMGGMGGMGGMGGMGGMEGMDFSKLMGGMGGMGGMGGLEGLGGMGGMGGMGGMGGMGGMEEFEDSDDEEETAKSGDKKDDAVKEEGLATEKAPAAEETTSVKEDK
# B7: RAD23-1 (protein, UniProt Q84L33 1-371)
# chain: MKLTVKTLKGSHFEIRVLPSDTIMAVKKNIEDSQGKDNYPCGQQLLIHNGKVLKDETSLVENKVTEEGFLVVMLSKSKSGGSAGQASVQTSSVSQPVSATTSSTKPAAPSTTQSSPVPASPIPAQEQPAAQTDTYGQAASTLVSGSSLEQMVQQIMEMGGGSWDKETVTRALRAAYNNPERAVDYLYSGIPQTAEVAVPVPEAQIAGSGAAPVAPASGGPNSSPLDLFPQETVAAAGSGDLGTLEFLRNNDQFQQLRTMVHSNPQILQPMLQELGKQNPQLLRLIQENQAEFLQLVNEPYEGSDGEGDMFDQPEQEMPHAINVTPAEQEAIQRLEAMGFDRALVIEAFLACDRNEELAANYLLENSGDFED
# B8: NRP1 (protein, UniProt Q9CA59 1-256)
# chain: MVADKSKKSKIEEKGEEENLEQIDAELVLSIEKLQEIQDDLEKINEKASDEVLEVEQKYNVIRKPVYDKRNEVIQSIPGFWMTAFLSHPALGDLLTEEDQKIFKYLNSLEVEDAKDVKSGYSITFHFTSNPFFEDAKLTKTFTFLEEGTTKITATPIKWKEGKGLPNGVNHDDKKGNKRALPEESFFTWFTDAQHKEDAGDEIHDEVADIIKEDLWSNPLTYFNNDADEEDFDGDDDGDEEGEEDDDDEEEEDGEE
# B9: NRP2 (protein, UniProt Q8LC68 1-255)
# chain: MVTDKSKKAKTEEENVEQIDAELVLSIEKLQEIQDDLEKINEKASDEVLEVEQKYNVIRKPVYDKRNEIIKTIPDFWLTAFLSHPALGELLTEEDQKIFKYLSSLDVEDAKDVKSGYSITFSFNPNPFFEDGKLTKTFTFLEEGTTKITATPIKWKEGKGLANGVNHEKNGNKRALPEESFFTWFSDAQHKEDVEDEMQDEVADIIKEDLWPNPLTYFNNDADEEDFDGDDDGDEEEKEGDSDEDDDEEDEVGEE
# B10: NAT10 (protein, UniProt Q9XIK4 1-1028)
# chain: MRKKVDERIRTLIENGVKLRHRSMFVIIGDKARDQIVNLHHILSKSVVKSNPSVLWCYKNRLDISSHNKKRAKQLKKMKERGQLDPEKLDAFSLFLDVVDVTHCLYKDSERILGNTFGICILQDFEALTPNLLARTIETVEGGGLVVLLLQSLASLTSLCTMVMDVHDRFRTESHSEASGRFNERFLLSLASCKACVVMDDELNLLPLSSHIKSITKVPTKEDSEALSEAERDLKSLKDALNDDFPVGPLINKCCTLDQGKAVVTFFDAILDKTLRSIVALIASRGRGKSAALGLAVAGAVAAGYSNIYVTAPSPDNLKTVFEFVCKGFDALEYKEHLEYDVVRSVNPEFNKAIVRINIFKQHRQTIQYIQPHEHEKLSQVELLVIDEAAAIPLPVVKSLLGPYLVFLSSTVSGYEGTGRSLSLKLLQQLEEQSRAPVTGVEGSLSGCLFKKIELSESIRYASGDPIESWLNGLLCLDVANCLPNPACHPLPSQCDLYYVNRDTLFSYHKDSELFLQRMMALCVSSHYKNSPNDLQLLSDAPAHHLFVLLGPVDESKNQLPDILCVIQVCLEGQISRKSAEKSLREGHSPHGDQIPWKFCEQFRDVVFPKLSGARIVRIAVHPNAMKMGYGSAAVELLTRYFEGQLASISEGDDELEVEPSPVRVTEAAAKVSLLEEQIKPRANLPPLLVPLRDRRPERLHYIGVSFGLTLDLFRFWRKHKFAPFYISQIPSAVTGEHTCMLLKPLTLSNDEFEVDESDELGFFAPFYKDFRIRFSKLLSDKFKKMDYKLAMSVLNPKINFPEVDLTGNSPDGFLKKLDGVLSPYDMERFRAYTANLVDFNLVYDICKTLAHHYFQEKLPVSLSYVQASVLLCLGLQESDFSSIERQMQLERGQIYSLLLKVGKKLYKYLNGIATKELESTLPRLKDRVLEPHKVSVDEDLREGAKEVEEQMRARIEELLDPELLDQFAIGDKEAEALQKSKISSSGLISIESTKTDNKKEKPSGFDKSAKKRGNDKHSSTSNKKRRA
# B11: MCM5, full length (protein, UniProt O80786 1-727)
# chain: MSGWDEGAVYYSDQPQFPEAGDAATISPHAVLTKFKEFIRNFEIEQNCFPYREALLDNPKRLVVHLEDLLSFDSDLPSLIRSAPADYLPVFEKAAGEVLTGLKMREANEGGVMEEPLTRDVQILLTSREDPVSMRLLGAQYISKLVKISGISIAASRVKAKATYVFLVCKNCKKTREVPCRPGLGGAIVPRSCDNIPQPGEEPCPLDPWMVVPDRSQYVDQQTLKLQENPEDVPTGELPRNMLLSVDRHLVQTIVPGTRLTVMGIYSIFQASSSSNSHKGAVAIRQPYIRVVGLEDTNEASSRGPANFTPDEEEEFKKFADSQDVYKNICTKIAPSIFGHEDVKRAAACLLFGGSRKSLPDGVKLRGDINVLLLGDPSTAKSQFLKFVEKTAPIAVYTSGKGSSAAGLTASVIRDSSTREFYLEGGAMVLADGGVVCIDEFDKMRPEDRVAIHEAMEQQTISIAKAGITTVLNSRTSVLAAANPPSGRYDDLKTAQDNIDLQTTILSRFDLIFIVKDIRKYSQDKEIASHIIRVHASANKFSDENTDSKEDNWLKRYIQYCRARCHPRLSKDAAENLQRKYVTIRMDMKRRAHETGEAAPIPITVRQLEAIVRLSESLAKMRLSHEATPDDVDKAFKLFDTSTMDAARSGINQQINITGEMANEIKQAETQIKRRMGIGARLSERRLIEDLARMGMNDSMVRRALLIMHQRGEVEYQRERRSIVRKA
# Target: T1, POT1a (Arabidopsis thaliana) (UniProt Q56Y52)
# T1 sequence: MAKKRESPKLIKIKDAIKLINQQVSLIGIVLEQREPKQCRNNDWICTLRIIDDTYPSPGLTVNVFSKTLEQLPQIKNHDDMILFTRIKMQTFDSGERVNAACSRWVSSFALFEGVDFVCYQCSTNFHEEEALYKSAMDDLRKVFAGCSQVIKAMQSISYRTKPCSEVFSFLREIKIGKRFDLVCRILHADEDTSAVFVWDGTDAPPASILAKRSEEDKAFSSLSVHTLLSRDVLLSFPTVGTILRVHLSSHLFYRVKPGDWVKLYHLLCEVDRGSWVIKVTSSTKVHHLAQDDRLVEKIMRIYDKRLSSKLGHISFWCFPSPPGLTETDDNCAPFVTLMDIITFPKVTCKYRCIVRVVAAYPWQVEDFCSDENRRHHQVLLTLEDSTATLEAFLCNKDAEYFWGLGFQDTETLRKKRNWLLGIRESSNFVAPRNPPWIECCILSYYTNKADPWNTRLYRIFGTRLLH
# Test: two-hybrid; Matchmaker GAL4 system, pGADT7-DEST/pGBKT7-DEST, S. cerevisiae PJ69-4α, 30 °C; growth on -LWH plates (with increasing 3-aminotriazol) and -LWHAde plates
row,Binder,binding
1,B1,binds
2,B2,binds
3,B3,binds
4,B4,binds
5,B5,no binding
6,B6,no binding
7,B7,no binding
8,B8,no binding
9,B9,no binding
10,B10,no binding

# Target: T2, AtTERT TEN construct (1-233 aa) (Arabidopsis thaliana) (UniProt Q9SPU7)
# T2 sequence: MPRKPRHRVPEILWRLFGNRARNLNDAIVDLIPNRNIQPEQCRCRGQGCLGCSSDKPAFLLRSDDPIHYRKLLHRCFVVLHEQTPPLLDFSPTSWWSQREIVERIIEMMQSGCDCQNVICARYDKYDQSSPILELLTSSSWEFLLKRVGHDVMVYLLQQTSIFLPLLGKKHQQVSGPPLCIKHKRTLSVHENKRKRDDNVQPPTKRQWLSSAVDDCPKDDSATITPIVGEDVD
# Test: as above
row,Binder,binding
1,B11,binds
2,B2,binds
3,B3,binds
4,B4,binds

# — article PMC8745574
